Results are given in words; binding and its absence hold for the method and conditions named. In cells and extracts the contact can be indirect. Binding calls can cover weak binding; strength is not graded here.
Assays:
[1] = target: cLUC-SUMO3 (Arabidopsis) (Arabidopsis) (UniProt Q9FLP5); experiment: split reporter; competitive split-luciferase in N. benthamiana leaves with a co-expressed competitor (NIb, NIb_(sim2), other potyviral NIbs, SUMO1 or GUS); 60 hpi, 10 μM D-luciferin
[2] = target: sumoylation-defective mutant of SUMO3 (SUMOΔGG), split-luciferase fusion (Arabidopsis) (UniProt Q9FLP5); experiment: as above
[3] = target: FLAG-4×Myc-SUMO3 (Arabidopsis) (Arabidopsis) (UniProt Q9FLP5); experiment: co-IP; transient expression assay, SUMO3 and NPR1 in the presence and absence of NIb (Supplementary Fig. 11a)
[4] = target: SUMO3 (Arabidopsis), BiFC fusion (Arabidopsis) (UniProt Q9FLP5); experiment: split reporter; competitive BiFC in N. benthamiana: NPR1 with SUMO3 or SUMO3ΔGG in the presence of NIb, NIb_(sim2) or SUMO1; nuclear YFP signal intensity
[5] = target: sumoylation-defective mutant of SUMO3 (SUMOΔGG), BiFC fusion (Arabidopsis) (UniProt Q9FLP5); experiment: as above

Sequences of proteins named here, by UniProt entry; tags and fusion partners are left off. A change or cut given only in a name is not applied to a line headed by its entry.
UniProt Q9FLP5: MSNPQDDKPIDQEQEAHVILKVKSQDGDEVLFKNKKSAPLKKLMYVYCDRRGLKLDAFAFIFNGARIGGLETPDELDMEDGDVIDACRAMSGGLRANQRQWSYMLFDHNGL
UniProt P93002: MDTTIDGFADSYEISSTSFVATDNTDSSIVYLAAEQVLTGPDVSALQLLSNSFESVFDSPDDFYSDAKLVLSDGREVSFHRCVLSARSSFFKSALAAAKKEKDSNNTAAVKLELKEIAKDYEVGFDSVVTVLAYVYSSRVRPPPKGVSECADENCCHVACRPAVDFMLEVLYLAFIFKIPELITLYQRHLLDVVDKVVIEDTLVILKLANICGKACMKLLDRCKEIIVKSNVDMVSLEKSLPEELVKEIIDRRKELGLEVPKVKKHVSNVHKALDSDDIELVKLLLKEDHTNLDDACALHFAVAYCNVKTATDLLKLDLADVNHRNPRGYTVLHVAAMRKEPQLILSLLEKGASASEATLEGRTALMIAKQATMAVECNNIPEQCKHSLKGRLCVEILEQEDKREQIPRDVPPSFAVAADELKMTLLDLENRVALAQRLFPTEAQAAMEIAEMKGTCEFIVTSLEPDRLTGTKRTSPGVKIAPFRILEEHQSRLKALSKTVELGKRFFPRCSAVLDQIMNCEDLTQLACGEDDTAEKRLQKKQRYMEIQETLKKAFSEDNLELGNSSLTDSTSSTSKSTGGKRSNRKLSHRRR

In the case of “NPR1-nLUC (Arabidopsis) (from UniProt P93002 1-593)”, the binding [1] is reported as “binds” and the binding [2] is reported as “binds”.

“NPR1-YFP (Arabidopsis) (from UniProt P93002 1-593)” was tested, and the binding [3] was “binds”.

With “N-terminal segment of YFP (YN)-fused Arabidopsis NPR1 (from UniProt P93002 1-593)” the binding [4] was “binds” and the binding [5] was “binds”.
